The source of these data is article PMC10818623, “Assessing Trans-Inhibition of OATP1B1 and OATP1B3 by Calcineurin and/or PPIase Inhibitors and Global Identification of OATP1B1/3-Associated Proteins” (Pharmaceutics, 2023).

Amino acid sequences for entries named in this document (tags omitted). Residues count along the entry.
UniProt Q9NYB9: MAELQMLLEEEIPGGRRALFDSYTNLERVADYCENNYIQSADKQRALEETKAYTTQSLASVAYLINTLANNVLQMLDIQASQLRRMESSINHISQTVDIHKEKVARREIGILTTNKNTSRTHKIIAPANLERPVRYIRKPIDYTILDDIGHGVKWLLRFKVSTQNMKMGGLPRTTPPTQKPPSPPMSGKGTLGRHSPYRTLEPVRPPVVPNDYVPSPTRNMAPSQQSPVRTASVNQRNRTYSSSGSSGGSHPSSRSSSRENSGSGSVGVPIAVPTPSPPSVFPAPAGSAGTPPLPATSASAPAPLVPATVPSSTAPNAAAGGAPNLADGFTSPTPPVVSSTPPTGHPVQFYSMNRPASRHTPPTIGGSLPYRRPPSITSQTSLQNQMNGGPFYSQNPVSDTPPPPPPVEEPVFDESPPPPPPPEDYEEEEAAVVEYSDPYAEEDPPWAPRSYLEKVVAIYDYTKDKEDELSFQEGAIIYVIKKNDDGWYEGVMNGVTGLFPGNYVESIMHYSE
UniProt Q9ULT8: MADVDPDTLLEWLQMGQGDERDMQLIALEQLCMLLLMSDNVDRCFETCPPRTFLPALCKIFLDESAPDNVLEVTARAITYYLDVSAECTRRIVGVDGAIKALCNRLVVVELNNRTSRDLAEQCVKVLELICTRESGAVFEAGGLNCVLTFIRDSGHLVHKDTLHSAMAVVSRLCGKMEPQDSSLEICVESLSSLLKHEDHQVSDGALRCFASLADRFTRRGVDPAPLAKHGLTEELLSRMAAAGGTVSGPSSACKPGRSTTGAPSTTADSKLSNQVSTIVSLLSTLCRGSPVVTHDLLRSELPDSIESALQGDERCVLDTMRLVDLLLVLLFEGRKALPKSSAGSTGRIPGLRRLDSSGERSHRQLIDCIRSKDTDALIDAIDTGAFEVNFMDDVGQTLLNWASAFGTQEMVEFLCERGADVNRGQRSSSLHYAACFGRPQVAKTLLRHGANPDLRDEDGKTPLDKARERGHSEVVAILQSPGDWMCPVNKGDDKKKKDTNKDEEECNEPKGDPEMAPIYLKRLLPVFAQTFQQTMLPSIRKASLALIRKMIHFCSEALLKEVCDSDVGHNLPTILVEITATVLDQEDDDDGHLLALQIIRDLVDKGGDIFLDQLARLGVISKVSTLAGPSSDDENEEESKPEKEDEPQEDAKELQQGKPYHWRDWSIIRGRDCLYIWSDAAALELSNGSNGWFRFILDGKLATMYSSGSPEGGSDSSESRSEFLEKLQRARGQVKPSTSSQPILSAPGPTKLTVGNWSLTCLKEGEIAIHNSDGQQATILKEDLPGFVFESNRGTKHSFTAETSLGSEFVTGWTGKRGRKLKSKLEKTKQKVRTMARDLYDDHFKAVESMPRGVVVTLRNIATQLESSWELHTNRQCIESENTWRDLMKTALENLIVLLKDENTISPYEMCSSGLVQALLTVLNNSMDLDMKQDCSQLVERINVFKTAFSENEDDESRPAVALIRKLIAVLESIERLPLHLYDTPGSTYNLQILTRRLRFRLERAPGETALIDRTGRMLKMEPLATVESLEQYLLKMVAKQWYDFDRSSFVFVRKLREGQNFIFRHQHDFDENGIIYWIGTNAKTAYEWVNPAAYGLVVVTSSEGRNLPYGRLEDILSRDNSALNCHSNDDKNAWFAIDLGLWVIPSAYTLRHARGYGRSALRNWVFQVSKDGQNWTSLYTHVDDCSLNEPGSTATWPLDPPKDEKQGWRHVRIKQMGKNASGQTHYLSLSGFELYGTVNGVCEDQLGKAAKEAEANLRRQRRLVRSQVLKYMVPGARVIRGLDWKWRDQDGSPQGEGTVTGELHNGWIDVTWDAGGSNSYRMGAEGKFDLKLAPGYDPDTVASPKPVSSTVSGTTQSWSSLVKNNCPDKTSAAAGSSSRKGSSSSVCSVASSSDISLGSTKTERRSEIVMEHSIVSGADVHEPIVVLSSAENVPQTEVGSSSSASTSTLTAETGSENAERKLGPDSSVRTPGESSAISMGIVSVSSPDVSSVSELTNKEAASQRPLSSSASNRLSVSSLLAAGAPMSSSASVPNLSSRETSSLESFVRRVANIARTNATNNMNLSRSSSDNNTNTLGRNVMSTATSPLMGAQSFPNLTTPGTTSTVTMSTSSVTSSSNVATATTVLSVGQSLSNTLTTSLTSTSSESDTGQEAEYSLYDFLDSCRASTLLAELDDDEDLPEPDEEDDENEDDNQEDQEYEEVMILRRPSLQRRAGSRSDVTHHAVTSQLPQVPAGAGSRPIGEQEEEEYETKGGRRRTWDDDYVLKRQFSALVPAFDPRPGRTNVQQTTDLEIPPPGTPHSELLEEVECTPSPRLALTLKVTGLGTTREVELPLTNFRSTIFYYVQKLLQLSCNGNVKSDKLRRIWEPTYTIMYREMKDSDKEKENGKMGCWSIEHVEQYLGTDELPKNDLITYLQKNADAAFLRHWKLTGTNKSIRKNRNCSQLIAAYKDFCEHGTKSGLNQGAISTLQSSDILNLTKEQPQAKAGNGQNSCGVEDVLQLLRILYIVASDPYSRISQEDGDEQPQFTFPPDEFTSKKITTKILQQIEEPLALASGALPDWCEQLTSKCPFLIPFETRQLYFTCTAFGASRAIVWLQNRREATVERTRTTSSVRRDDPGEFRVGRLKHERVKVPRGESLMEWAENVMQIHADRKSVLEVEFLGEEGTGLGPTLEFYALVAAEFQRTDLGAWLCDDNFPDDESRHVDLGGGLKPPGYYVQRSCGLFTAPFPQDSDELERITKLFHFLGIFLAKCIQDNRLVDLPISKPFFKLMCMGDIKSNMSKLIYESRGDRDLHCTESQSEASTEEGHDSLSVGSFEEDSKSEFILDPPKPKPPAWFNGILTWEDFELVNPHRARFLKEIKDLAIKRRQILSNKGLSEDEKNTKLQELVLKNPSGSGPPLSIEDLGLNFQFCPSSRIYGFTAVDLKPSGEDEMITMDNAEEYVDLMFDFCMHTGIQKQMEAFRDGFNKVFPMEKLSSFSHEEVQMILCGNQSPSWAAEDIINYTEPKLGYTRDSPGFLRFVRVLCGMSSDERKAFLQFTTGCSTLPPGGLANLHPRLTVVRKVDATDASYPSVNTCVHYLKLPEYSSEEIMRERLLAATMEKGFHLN
UniProt Q99942: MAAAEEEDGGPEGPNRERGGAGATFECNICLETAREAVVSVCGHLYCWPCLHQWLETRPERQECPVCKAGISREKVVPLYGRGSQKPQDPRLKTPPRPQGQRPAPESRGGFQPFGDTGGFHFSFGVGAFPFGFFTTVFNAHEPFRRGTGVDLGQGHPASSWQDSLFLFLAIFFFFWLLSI
UniProt Q13049: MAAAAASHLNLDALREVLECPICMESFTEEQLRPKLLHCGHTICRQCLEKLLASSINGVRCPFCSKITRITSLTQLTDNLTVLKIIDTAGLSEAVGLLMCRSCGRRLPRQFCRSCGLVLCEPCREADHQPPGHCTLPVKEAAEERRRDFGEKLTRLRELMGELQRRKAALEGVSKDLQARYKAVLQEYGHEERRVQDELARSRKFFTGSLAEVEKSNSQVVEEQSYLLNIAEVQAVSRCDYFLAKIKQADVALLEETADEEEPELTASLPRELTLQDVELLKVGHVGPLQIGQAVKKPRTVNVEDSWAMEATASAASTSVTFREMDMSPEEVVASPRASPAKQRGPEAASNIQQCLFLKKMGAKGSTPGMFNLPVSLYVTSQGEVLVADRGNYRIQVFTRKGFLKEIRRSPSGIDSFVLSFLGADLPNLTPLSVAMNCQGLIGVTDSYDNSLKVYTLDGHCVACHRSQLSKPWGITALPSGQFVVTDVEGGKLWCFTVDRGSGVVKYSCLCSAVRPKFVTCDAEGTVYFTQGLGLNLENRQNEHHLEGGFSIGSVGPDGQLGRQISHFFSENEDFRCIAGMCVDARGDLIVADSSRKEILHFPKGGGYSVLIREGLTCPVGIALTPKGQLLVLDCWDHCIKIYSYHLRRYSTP
UniProt Q6ZT12: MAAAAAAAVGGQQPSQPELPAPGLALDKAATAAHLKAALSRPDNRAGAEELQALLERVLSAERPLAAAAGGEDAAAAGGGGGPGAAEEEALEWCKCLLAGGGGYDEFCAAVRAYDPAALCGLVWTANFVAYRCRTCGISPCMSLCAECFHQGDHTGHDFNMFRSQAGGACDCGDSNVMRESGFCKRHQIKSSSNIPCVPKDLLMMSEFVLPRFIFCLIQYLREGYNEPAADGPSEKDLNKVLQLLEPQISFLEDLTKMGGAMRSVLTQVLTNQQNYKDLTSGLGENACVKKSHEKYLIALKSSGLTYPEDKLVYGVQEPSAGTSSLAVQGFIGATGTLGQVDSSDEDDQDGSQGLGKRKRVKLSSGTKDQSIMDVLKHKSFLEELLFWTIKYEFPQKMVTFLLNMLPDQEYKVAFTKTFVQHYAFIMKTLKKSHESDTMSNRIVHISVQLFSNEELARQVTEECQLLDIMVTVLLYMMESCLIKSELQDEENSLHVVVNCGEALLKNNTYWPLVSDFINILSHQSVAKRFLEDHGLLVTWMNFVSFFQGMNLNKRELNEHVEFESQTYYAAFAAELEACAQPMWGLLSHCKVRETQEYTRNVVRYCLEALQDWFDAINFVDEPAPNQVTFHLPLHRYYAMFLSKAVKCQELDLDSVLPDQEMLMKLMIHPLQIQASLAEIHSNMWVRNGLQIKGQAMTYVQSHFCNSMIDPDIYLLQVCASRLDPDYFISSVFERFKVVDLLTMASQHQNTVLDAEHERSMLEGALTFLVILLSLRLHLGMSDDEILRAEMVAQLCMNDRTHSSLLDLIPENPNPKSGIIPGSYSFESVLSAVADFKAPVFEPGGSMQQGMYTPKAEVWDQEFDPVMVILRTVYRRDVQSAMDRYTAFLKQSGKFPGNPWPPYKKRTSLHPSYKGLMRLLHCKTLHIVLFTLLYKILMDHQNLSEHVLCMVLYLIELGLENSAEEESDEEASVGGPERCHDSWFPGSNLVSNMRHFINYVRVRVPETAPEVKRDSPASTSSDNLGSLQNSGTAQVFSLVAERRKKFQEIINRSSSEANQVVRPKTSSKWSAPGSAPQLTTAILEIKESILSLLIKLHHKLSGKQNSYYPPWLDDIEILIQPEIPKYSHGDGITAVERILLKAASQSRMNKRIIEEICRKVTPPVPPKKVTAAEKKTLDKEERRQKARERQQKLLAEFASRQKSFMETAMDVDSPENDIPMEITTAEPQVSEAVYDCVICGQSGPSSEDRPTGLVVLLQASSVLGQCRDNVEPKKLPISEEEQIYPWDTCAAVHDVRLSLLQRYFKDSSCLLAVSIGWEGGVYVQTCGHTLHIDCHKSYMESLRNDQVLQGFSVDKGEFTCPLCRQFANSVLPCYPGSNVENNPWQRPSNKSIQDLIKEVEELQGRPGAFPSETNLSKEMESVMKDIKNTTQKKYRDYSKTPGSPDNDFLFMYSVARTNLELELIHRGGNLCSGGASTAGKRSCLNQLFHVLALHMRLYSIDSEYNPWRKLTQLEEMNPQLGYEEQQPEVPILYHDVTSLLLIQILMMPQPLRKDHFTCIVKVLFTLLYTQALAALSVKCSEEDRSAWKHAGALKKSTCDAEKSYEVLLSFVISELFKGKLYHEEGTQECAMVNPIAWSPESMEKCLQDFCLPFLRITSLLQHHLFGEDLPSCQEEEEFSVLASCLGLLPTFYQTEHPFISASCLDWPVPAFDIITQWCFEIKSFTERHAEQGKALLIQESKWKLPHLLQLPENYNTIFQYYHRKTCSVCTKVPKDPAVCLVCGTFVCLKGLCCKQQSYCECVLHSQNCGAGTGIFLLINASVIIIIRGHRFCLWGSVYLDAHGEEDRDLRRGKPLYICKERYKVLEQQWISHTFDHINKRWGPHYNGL
UniProt P23284, residues 34-216: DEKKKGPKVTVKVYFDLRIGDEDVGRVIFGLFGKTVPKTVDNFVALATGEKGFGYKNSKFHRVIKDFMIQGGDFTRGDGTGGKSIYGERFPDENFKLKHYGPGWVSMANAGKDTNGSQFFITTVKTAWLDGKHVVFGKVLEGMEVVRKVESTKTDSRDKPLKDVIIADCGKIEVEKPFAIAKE
UniProt P07947: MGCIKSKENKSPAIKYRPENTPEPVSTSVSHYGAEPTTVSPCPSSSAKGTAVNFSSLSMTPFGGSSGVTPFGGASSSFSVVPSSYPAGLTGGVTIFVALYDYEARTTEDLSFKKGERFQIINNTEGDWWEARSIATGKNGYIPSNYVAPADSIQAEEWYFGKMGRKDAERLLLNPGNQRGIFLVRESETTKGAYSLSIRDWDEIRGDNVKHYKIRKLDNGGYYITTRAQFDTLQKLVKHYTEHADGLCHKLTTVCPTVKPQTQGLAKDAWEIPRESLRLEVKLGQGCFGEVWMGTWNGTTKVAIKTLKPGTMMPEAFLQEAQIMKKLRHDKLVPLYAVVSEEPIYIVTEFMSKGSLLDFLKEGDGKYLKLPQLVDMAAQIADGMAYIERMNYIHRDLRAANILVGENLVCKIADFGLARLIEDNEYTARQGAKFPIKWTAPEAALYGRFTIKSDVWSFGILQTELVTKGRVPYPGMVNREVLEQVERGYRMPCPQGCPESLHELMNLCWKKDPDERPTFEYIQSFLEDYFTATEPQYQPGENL

Results are given in words; binding and its absence hold for the method and conditions named. In cells and extracts the contact can be indirect. Here binding means that the protein was enriched with, or labelled near, the bait; the list need not be complete. No binding means not detected with the bait. Sequences can lack the tags named with a protein.

Assay [1] deals with T1, FLAG-tagged OATP1B3 (organic anion transporting polypeptide 1B3) (UniProt Q9NPD5).
T1 sequence: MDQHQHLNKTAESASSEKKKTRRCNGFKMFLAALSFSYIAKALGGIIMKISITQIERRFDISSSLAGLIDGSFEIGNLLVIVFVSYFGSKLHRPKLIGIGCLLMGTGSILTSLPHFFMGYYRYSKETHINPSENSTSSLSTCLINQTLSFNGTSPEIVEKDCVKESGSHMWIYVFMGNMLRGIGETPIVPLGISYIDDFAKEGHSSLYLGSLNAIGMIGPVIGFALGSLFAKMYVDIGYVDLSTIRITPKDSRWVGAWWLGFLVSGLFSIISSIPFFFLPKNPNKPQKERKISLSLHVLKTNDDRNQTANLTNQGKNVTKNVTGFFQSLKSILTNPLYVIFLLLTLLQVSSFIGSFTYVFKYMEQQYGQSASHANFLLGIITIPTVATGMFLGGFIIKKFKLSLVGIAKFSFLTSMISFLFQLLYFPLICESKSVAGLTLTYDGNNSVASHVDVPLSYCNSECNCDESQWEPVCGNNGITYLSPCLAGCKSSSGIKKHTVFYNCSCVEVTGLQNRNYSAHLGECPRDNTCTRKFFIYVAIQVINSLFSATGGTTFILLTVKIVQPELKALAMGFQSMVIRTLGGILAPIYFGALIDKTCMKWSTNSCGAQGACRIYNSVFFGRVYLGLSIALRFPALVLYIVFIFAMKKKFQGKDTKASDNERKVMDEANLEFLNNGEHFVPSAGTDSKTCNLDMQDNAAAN
Nature of the assay: affinity purification with mass spectrometry; FLAG-IP (M2 resin, overnight, 4 °C) from whole cell lysates of HEK293-FLAG-OATP1B1, HEK293-FLAG-OATP1B3 and HEK293-Mock cells; lysis buffer 50 mM Tris-HCl pH 7.4, 150 mM NaCl, 1 mM EDTA, 1% Triton X-100; seven washes; elution in SDS sample buffer at 60 °C; LC-MS/MS; N = 1; no drug treatment.

Assay [2] concerns the target T2, FLAG-tagged OATP1B1 (organic anion transporting polypeptide 1B1) (UniProt Q9Y6L6).
T2 sequence: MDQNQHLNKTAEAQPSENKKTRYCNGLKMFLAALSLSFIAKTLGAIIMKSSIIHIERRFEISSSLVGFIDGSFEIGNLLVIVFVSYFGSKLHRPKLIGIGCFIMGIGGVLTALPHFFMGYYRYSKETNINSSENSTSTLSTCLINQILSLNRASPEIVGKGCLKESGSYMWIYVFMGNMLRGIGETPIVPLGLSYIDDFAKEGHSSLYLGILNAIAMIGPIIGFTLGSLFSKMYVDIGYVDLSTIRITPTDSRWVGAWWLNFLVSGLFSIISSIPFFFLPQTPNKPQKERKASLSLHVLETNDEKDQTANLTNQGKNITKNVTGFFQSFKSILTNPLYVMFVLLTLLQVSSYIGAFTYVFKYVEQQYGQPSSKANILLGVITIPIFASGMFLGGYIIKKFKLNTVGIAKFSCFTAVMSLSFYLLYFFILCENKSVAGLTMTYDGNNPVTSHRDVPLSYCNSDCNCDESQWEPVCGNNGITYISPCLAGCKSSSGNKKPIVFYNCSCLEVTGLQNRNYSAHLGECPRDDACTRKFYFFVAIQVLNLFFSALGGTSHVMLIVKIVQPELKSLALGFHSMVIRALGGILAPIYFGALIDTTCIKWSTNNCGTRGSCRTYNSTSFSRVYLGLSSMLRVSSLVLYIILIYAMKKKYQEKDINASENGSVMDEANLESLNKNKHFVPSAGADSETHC
The description is as above.

With “Abl interactor 2 (from UniProt Q9NYB9 1-513)”, the results for the binding result in assay [1] and in assay [2] were “no binding” and “binds”, respectively.
Consider “Bone morphogenetic protein receptor type-2 (from UniProt Q13873 27-1038)”, for which the binding entry in assay [1] and in assay [2] was “binds” each time.
With “Casein kinase I isoform gamma-3 (from UniProt Q9Y6M4 1-447) (enzyme)”, the binding result in assay [1] and in assay [2] was “binds” throughout.
As for “Cell division cycle 7-related protein kinase (from UniProt O00311 1-574) (enzyme)”, the binding result in assay [1] was “no binding”; in assay [2], “binds”.
On to “E3 ubiquitin-protein ligase AMFR (from UniProt Q9UKV5 1-643) (enzyme)”, for which the binding result was “no binding” in assay [1] and “binds” in assay [2].
For “E3 ubiquitin-protein ligase HECTD1 (from UniProt Q9ULT8 1-2610) (enzyme)”, the binding result in assay [1] was “no binding”; in assay [2], “binds”.
Taken in the same sequence, the figures for “E3 ubiquitin-protein ligase RNF5 (from UniProt Q99942 1-180) (enzyme)” were “binds” and “binds”.
The matching figures for “E3 ubiquitin-protein ligase TRIM32 (from UniProt Q13049 1-653) (enzyme)”: “no binding” and “binds”.
The matching figures for “E3 ubiquitin-protein ligase UBR3 (from UniProt Q6ZT12 1-1888) (enzyme)”: “no binding” and “binds”.
Take “E3 ubiquitin-protein ligase listerin (from UniProt O94822 1-1766) (enzyme)”: the binding entry in assay [1] is recorded as “no binding”; in assay [2] it was “binds”.
For the molecule “G protein-coupled receptor kinase 6 (from UniProt P43250 1-576) (enzyme)”, the binding result in assay [1] and in assay [2] was “binds” each time.
For “Mitochondrial ubiquitin ligase activator of NFKB 1 (from UniProt Q969V5 1-352) (enzyme)”, the binding result in assay [1] was “no binding”; in assay [2], “binds”.
For “Non-receptor tyrosine-protein kinase TYK2 (from UniProt P29597 1-1187) (enzyme)”, the binding entry is on record as “no binding” in assay [1] and “binds” in assay [2].
The matching figures for “Peptidyl-prolyl cis-trans isomerase B (Cyclophilin B) (from UniProt P23284 34-216) (enzyme)”: “no binding” and “no binding”.
Turning to “Peptidyl-prolyl cis-trans isomerase FKBP8 (from UniProt Q14318 1-412) (enzyme)”, the binding entry in assay [1] and in assay [2] was “binds” each time.
As to “Probable E3 ubiquitin-protein ligase HERC1 (from UniProt Q15751 1-4861) (enzyme)”, the figures for the binding entry in assay [1] and in assay [2] were “no binding” and “binds”, respectively.
“RAC-beta serine/threonine-protein kinase (from UniProt P31751 1-481) (enzyme)”: the binding result in assay [1] and in assay [2] was “binds” in each case.
As to “Receptor tyrosine-protein kinase erbB-2 (from UniProt P04626 23-1255)”, the values for the binding entry in assay [1] and in assay [2] were “no binding” and “binds”, respectively.
The matching figures for “Serine/threonine-protein kinase 19 (human (endogenous in HEK293)) (enzyme)”: “no binding” and “binds”.
Taken in the same sequence, the figures for “Serine/threonine-protein kinase LMTK2 (from UniProt Q8IWU2 1-1503) (enzyme)” were “no binding” and “binds”.
In the case of “Serine/threonine-protein kinase Nek7 (from UniProt Q8TDX7 1-302) (enzyme)”, the binding result in assay [1] and in assay [2] was “binds” throughout.
For the molecule “Serine/threonine-protein kinase SMG1 (from UniProt Q96Q15 1-3661) (enzyme)”, the binding entry in assay [1] was “no binding”; in assay [2] it was “binds”.
In the case of “Tyrosine-protein kinase Fyn (from UniProt P06241 1-537) (enzyme)”, the binding result in assay [1] and in assay [2] was “binds” throughout.
For the molecule “Tyrosine-protein kinase Yes (from UniProt P07947 1-543) (enzyme)”, the binding result in assay [1] and in assay [2] was “binds” each time.
As for “Ubiquitin carboxyl-terminal hydrolase 24 (from UniProt Q9UPU5 1-2620) (enzyme)”, the binding result in assay [1] and in assay [2] was “binds” in each case.
Consider “Ubiquitin-conjugating enzyme E2 Q1 (from UniProt Q7Z7E8 1-422)”, for which the binding result in assay [1] is reported as “no binding”; in assay [2], “binds”.
Taken in the same sequence, the figures for “Ubiquitin-protein ligase E3C (from UniProt Q15386 1-1083) (enzyme)” were “no binding” and “binds”.

B1: E3 ubiquitin-protein ligase Praja-1 (enzyme, UniProt Q8NG27 1-643)
chain: MGQESSKPVWPNPTGGYQSNTGRRYGRRHAYVSFRPPTSQRERIASQRKTNSEVPMHRSAPSQTTKRSRSPFSTTRRSWDDSESSGTNLNIDNEDYSRYPPREYRASGSRRGMAYGHIDSYGADDSEEEGAGPVERPPVRGKTGKFKDDKLYDPEKGARSLAGPPPHFSSFSRDVREERDKLDPVPAARCSASRADFLPQSSVASQSSSEGKLATKGDSSERERREQNLPARPSRAPVSICGGGENTSKSAEEPVVRPKIRNLASPNCVKPKIFFDTDDDDDMPHSTSRWRDTANDNEGHSDGLARRGRGESSSGYPEPKYPEDKREARSDQVKPEKVPRRRRTMADPDFWTHSDDYYKYCDEDSDSDKEWIAALRRKYRSREQTLSSSGESWETLPGKEEREPPQAKVSASTGTSPGPGASASAGAGAGASAGSNGSNYLEEVREPSLQEEQASLEEGEIPWLQYHENDSSSEGDNDSGHELMQPGVFMLDGNNNLEDDSSVSEDLEVDWSLFDGFADGLGVAEAISYVDPQFLTYMALEERLAQAMETALAHLESLAVDVEVANPPASKESIDALPEILVTEDHGAVGQEMCCPICCSEYVKGEVATELPCHHYFHKPCVSIWLQKSGTCPVCRCMFPPPL
Take B1: the binding entry in assay [1] and in assay [2] was “binds” each time.

B2: Peptidyl-prolyl cis-trans isomerase FKBP5 (enzyme, UniProt Q13451 1-457)
chain: MTTDEGAKNNEESPTATVAEQGEDITSKKDRGVLKIVKRVGNGEETPMIGDKVYVHYKGKLSNGKKFDSSHDRNEPFVFSLGKGQVIKAWDIGVATMKKGEICHLLCKPEYAYGSAGSLPKIPSNATLFFEIELLDFKGEDLFEDGGIIRRTKRKGEGYSNPNEGATVEIHLEGRCGGRMFDCRDVAFTVGEGEDHDIPIGIDKALEKMQREEQCILYLGPRYGFGEAGKPKFGIEPNAELIYEVTLKSFEKAKESWEMDTKEKLEQAAIVKEKGTVYFKGGKYMQAVIQYGKIVSWLEMEYGLSEKESKASESFLLAAFLNLAMCYLKLREYTKAVECCDKALGLDSANEKGLYRRGEAQLLMNEFESAKGDFEKVLEVNPQNKAARLQISMCQKKAKEHNERDRRIYANMFKKFAEQDAKEEANKAMGKKTSEGVTNEKGTDSQAMEEEKPEGHV
For B2, the results for the binding result in assay [1] and in assay [2] were “no binding” and “binds”, respectively.
